Measurements reported in PubChem BioAssay AID1159578 (Peter MacCallum Cancer Centre, 2015)
The deposit covers about 18,000 reagents; below is a random part of them. In the full data, about 1,030 (5.7%) got an active call. 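Inactive calls also include pools with fewer than 3300 nuclei, whose migration was not assessed.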 Raw values are not corrected between plates.

- Assay: 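Knock-downs that alter how fast lymphatic endothelial cells migrate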 (primary screen)
- Cells: human lymphatic endothelial cells
- Reagent: siRNA pool against human genes, 40 nM
- Time to read-out: 48 h after transfection
- Measured: 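High-content imaging of dye-stained cells in a scratch assay measures filled wound area and nuclei per well; duplicate means given as ratio to mock and robust z-score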
- Reading the numbers: migration robust z-score: higher = faster migration into the scratch; migration relative to mock: higher = more scratch area covered than mock; nuclei per well: higher = more cells in the well
- Active means: 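Pools averaging fewer than 3300 nuclei are never called; remaining pools count as changed when migration robust z lies outside -2 to 2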
- Calls: active = migration changed; inactive = no migration change, or too few cells

gene | migration robust z-score | migration class with cell-count check | migration relative to mock | nuclei per well, duplicate mean | Outcome
CYTL1 (GeneID 54360) | 1.64 | migration z between -2 and 2; enough cells | 1.31 | 7188 | inactive
DHRS3 (GeneID 9249) | -0.54 | migration z between -2 and 2; enough cells | 0.7 | 4240 | inactive
DCAF7 (GeneID 10238) | -0.12 | migration z between -2 and 2; enough cells | 0.85 | 4958 | inactive
PKHD1L1 (GeneID 93035) | -1.4 | migration z between -2 and 2; enough cells | 0.52 | 5267 | inactive
ATL2 (GeneID 64225) | 0.59 | migration z between -2 and 2; enough cells | 1.03 | 7359 | inactive
ACAN (GeneID 176) | 0.34 | migration z between -2 and 2; enough cells | 0.97 | 7359 | inactive
CDH19 (GeneID 28513) | 1.44 | migration z between -2 and 2; enough cells | 1.26 | 6655 | inactive
KCTD14 (GeneID 65987) | -0.86 | migration z between -2 and 2; enough cells | 0.64 | 4723 | inactive
CD46 (GeneID 4179) | 1.08 | migration z between -2 and 2; enough cells | 1.17 | 6639 | inactive
GRPEL2 (GeneID 134266) | -0.55 | migration z between -2 and 2; enough cells | 0.74 | 6412 | inactive
WASHC2C (GeneID 253725) | 0.46 | migration z between -2 and 2; enough cells | 1 | 5572 | inactive
SPPL2C (GeneID 162540) | -0.05 | migration z between -2 and 2; enough cells | 0.8 | 5248 | inactive
NTF3 (GeneID 4908) | -0.88 | migration z between -2 and 2; enough cells | 0.64 | 5162 | inactive
CEBPD (GeneID 1052) | -2.95 | under 3300 nuclei; migration not judged | 0.12 | 2986 | inactive
TUBGCP2 (GeneID 10844) | 0.05 | migration z between -2 and 2; enough cells | 0.82 | 4828 | inactive
DUSP3 (GeneID 1845) | -0.36 | migration z between -2 and 2; enough cells | 0.74 | 5204 | inactive
KRT2 (GeneID 3849) | 0.46 | migration z between -2 and 2; enough cells | 1.01 | 6370 | inactive
DUSP21 (GeneID 63904) | 0.94 | migration z between -2 and 2; enough cells | 0.98 | 6253 | inactive
USP10 (GeneID 9100) | 0.67 | migration z between -2 and 2; enough cells | 0.94 | 5360 | inactive
HACE1 (GeneID 57531) | 0.05 | migration z between -2 and 2; enough cells | 0.81 | 3617 | inactive
ARNT (GeneID 405) | -0.88 | migration z between -2 and 2; enough cells | 0.64 | 5145 | inactive
MAT1A (GeneID 4143) | 0.39 | migration z between -2 and 2; enough cells | 0.88 | 5484 | inactive
NGB (GeneID 58157) | 0.8 | migration z between -2 and 2; enough cells | 1.09 | 5918 | inactive
RPAP2 (GeneID 79871) | -1.73 | migration z between -2 and 2; enough cells | 0.44 | 5662 | inactive
HPGDS (GeneID 27306) | 1.38 | migration z between -2 and 2; enough cells | 1.07 | 6148 | inactive
SCN9A (GeneID 6335) | -0.2 | migration z between -2 and 2; enough cells | 0.76 | 4998 | inactive
GAL3ST2 (GeneID 64090) | -1.4 | migration z between -2 and 2; enough cells | 0.54 | 3613 | inactive
MEAF6 (GeneID 64769) | -0.73 | migration z between -2 and 2; enough cells | 0.7 | 7134 | inactive
HOXC10 (GeneID 3226) | 0.12 | migration z between -2 and 2; enough cells | 0.92 | 7660 | inactive
NLRP5 (GeneID 126206) | 0.06 | migration z between -2 and 2; enough cells | 0.9 | 4570 | inactive
PPP1CC (GeneID 5501) | 0.88 | migration z between -2 and 2; enough cells | 0.98 | 5714 | inactive
SLC35B3 (GeneID 51000) | 0.32 | under 3300 nuclei; migration not judged | 0.97 | 3208 | inactive
SEH1L (GeneID 81929) | -0.11 | migration z between -2 and 2; enough cells | 0.86 | 6152 | inactive
ANKRD12 (GeneID 23253) | 0.4 | migration z between -2 and 2; enough cells | 0.98 | 6664 | inactive
KIRREL3 (GeneID 84623) | 1.38 | migration z between -2 and 2; enough cells | 1.25 | 5326 | inactive
SPRR2B (GeneID 6701) | -1.2 | migration z between -2 and 2; enough cells | 0.57 | 6384 | inactive
CCNI2 (GeneID 645121) | -0.32 | migration z between -2 and 2; enough cells | 0.8 | 5257 | inactive
GORASP1 (GeneID 64689) | 1.02 | migration z between -2 and 2; enough cells | 1.16 | 6180 | inactive
SLC38A4 (GeneID 55089) | 0.54 | migration z between -2 and 2; enough cells | 0.91 | 5428 | inactive

4 entries from above, set out differently:
{"gene": "CD46 (GeneID 4179)", "migration robust z-score": 1.08, "migration class with cell-count check": "migration z between -2 and 2; enough cells", "migration relative to mock": 1.17, "nuclei per well, duplicate mean": 6639, "Outcome": "inactive"}
{"gene": "GRPEL2 (GeneID 134266)", "migration robust z-score": -0.55, "migration class with cell-count check": "migration z between -2 and 2; enough cells", "migration relative to mock": 0.74, "nuclei per well, duplicate mean": 6412, "Outcome": "inactive"}
{"gene": "WASHC2C (GeneID 253725)", "migration robust z-score": 0.46, "migration class with cell-count check": "migration z between -2 and 2; enough cells", "migration relative to mock": 1, "nuclei per well, duplicate mean": 5572, "Outcome": "inactive"}
{"gene": "SPPL2C (GeneID 162540)", "migration robust z-score": -0.05, "migration class with cell-count check": "migration z between -2 and 2; enough cells", "migration relative to mock": 0.8, "nuclei per well, duplicate mean": 5248, "Outcome": "inactive"}
